Measurements: publication PMC10740027
Results are given in words; binding and its absence hold for the method and conditions named. Binding seen in cells or lysates may run through a third protein. Some results given as binding are weak or reduced against the parent protein; the word gives no strength. Tags and fused reporters may be left off the sequences shown.

T1: UBE2O, tagged, expressed from a plasmid (UniProt Q9C0C9)
T1 sequence: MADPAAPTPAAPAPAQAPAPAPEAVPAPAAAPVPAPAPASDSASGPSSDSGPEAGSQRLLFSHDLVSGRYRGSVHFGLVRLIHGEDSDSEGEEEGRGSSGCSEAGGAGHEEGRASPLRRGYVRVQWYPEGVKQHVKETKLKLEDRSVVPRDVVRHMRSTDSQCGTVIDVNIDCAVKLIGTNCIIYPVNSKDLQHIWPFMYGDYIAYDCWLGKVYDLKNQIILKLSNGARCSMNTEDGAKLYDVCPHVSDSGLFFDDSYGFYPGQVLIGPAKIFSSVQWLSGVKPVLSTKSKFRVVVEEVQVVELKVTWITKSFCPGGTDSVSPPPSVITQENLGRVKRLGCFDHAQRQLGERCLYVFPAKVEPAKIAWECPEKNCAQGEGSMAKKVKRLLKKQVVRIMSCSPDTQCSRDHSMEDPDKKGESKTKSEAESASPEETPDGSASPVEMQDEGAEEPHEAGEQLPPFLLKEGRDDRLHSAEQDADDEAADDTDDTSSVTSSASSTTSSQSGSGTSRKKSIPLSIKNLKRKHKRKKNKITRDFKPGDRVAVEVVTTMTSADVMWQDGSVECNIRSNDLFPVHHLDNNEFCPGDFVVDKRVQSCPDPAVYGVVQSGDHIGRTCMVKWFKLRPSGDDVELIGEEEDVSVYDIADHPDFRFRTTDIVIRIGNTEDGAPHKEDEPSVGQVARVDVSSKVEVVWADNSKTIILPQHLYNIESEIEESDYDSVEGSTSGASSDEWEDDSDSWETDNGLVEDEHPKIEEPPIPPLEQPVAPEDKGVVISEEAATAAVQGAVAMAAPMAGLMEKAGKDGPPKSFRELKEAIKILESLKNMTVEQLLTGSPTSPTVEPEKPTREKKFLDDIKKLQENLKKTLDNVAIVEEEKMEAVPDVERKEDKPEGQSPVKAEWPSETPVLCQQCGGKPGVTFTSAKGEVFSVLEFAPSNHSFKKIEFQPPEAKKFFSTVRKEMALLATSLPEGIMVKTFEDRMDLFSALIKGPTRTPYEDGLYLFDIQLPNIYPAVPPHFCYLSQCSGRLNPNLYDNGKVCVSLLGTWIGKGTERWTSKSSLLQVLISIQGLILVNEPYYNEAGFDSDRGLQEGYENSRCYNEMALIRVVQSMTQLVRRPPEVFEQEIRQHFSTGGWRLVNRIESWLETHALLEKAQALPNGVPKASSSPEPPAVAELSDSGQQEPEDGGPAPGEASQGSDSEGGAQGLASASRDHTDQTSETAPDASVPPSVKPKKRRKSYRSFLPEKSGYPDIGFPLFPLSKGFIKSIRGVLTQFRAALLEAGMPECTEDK

T2: IFIT3, tagged, expressed from a plasmid (UniProt O14879)
T2 sequence: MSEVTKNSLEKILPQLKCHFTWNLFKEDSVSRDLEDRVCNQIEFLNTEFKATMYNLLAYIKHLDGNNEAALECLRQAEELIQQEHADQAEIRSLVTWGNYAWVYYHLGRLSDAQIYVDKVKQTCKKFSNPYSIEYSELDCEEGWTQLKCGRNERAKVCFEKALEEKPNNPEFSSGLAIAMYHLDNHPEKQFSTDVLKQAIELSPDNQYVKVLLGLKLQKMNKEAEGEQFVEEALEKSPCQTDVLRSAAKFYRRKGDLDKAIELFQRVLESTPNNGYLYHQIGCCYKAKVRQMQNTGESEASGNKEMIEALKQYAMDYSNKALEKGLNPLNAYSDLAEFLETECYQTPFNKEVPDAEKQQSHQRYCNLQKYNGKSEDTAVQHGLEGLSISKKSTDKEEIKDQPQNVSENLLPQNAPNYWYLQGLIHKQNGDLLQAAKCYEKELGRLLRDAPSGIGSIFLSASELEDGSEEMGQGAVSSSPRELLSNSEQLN


What was measured:
[1] = target: T1, UBE2O, tagged, expressed from a plasmid; assay: co-IP; 293 T cells transfected with plasmids containing different tags, 48 h, MG132 (10 μM) 4-6 h; protein A/G beads and antibodies specific for the corresponding tags; Western blot
[2] = target: T2, IFIT3, tagged, expressed from a plasmid; assay: as above

| Binder | binding [1] | binding [2] |
| --- | --- | --- |
| IFIT3, tagged, expressed from a plasmid (protein, UniProt O14879 1-490) MSEVTKNSLEKILPQLKCHFTWNLFKEDSVSRDLEDRVCNQIEFLNTEFKATMYNLLAYIKHLDGNNEAALECLRQAEELIQQEHADQAEIRSLVTWGNYAWVYYHLGRLSDAQIYVDKVKQTCKKFSNPYSIEYSELDCEEGWTQLKCGRNERAKVCFEKALEEKPNNPEFSSGLAIAMYHLDNHPEKQFSTDVLKQAIELSPDNQYVKVLLGLKLQKMNKEAEGEQFVEEALEKSPCQTDVLRSAAKFYRRKGDLDKAIELFQRVLESTPNNGYLYHQIGCCYKAKVRQMQNTGESEASGNKEMIEALKQYAMDYSNKALEKGLNPLNAYSDLAEFLETECYQTPFNKEVPDAEKQQSHQRYCNLQKYNGKSEDTAVQHGLEGLSISKKSTDKEEIKDQPQNVSENLLPQNAPNYWYLQGLIHKQNGDLLQAAKCYEKELGRLLRDAPSGIGSIFLSASELEDGSEEMGQGAVSSSPRELLSNSEQLN | binds | – |
| UBE2O, tagged, expressed from a plasmid (enzyme, UniProt Q9C0C9 1-1292) MADPAAPTPAAPAPAQAPAPAPEAVPAPAAAPVPAPAPASDSASGPSSDSGPEAGSQRLLFSHDLVSGRYRGSVHFGLVRLIHGEDSDSEGEEEGRGSSGCSEAGGAGHEEGRASPLRRGYVRVQWYPEGVKQHVKETKLKLEDRSVVPRDVVRHMRSTDSQCGTVIDVNIDCAVKLIGTNCIIYPVNSKDLQHIWPFMYGDYIAYDCWLGKVYDLKNQIILKLSNGARCSMNTEDGAKLYDVCPHVSDSGLFFDDSYGFYPGQVLIGPAKIFSSVQWLSGVKPVLSTKSKFRVVVEEVQVVELKVTWITKSFCPGGTDSVSPPPSVITQENLGRVKRLGCFDHAQRQLGERCLYVFPAKVEPAKIAWECPEKNCAQGEGSMAKKVKRLLKKQVVRIMSCSPDTQCSRDHSMEDPDKKGESKTKSEAESASPEETPDGSASPVEMQDEGAEEPHEAGEQLPPFLLKEGRDDRLHSAEQDADDEAADDTDDTSSVTSSASSTTSSQSGSGTSRKKSIPLSIKNLKRKHKRKKNKITRDFKPGDRVAVEVVTTMTSADVMWQDGSVECNIRSNDLFPVHHLDNNEFCPGDFVVDKRVQSCPDPAVYGVVQSGDHIGRTCMVKWFKLRPSGDDVELIGEEEDVSVYDIADHPDFRFRTTDIVIRIGNTEDGAPHKEDEPSVGQVARVDVSSKVEVVWADNSKTIILPQHLYNIESEIEESDYDSVEGSTSGASSDEWEDDSDSWETDNGLVEDEHPKIEEPPIPPLEQPVAPEDKGVVISEEAATAAVQGAVAMAAPMAGLMEKAGKDGPPKSFRELKEAIKILESLKNMTVEQLLTGSPTSPTVEPEKPTREKKFLDDIKKLQENLKKTLDNVAIVEEEKMEAVPDVERKEDKPEGQSPVKAEWPSETPVLCQQCGGKPGVTFTSAKGEVFSVLEFAPSNHSFKKIEFQPPEAKKFFSTVRKEMALLATSLPEGIMVKTFEDRMDLFSALIKGPTRTPYEDGLYLFDIQLPNIYPAVPPHFCYLSQCSGRLNPNLYDNGKVCVSLLGTWIGKGTERWTSKSSLLQVLISIQGLILVNEPYYNEAGFDSDRGLQEGYENSRCYNEMALIRVVQSMTQLVRRPPEVFEQEIRQHFSTGGWRLVNRIESWLETHALLEKAQALPNGVPKASSSPEPPAVAELSDSGQQEPEDGGPAPGEASQGSDSEGGAQGLASASRDHTDQTSETAPDASVPPSVKPKKRRKSYRSFLPEKSGYPDIGFPLFPLSKGFIKSIRGVLTQFRAALLEAGMPECTEDK | – | binds |
